No constants are given. Whether binding was seen depends on the method and setting. A result given as binding can be weak or reduced; the word gives no strength.
Biological target: T1, TcdB1 (B-subunit of the Photorhabdus Tcd toxin complex) (Photorhabdus luminescens strain W14) (UniProt Q93EP6)
T1 sequence: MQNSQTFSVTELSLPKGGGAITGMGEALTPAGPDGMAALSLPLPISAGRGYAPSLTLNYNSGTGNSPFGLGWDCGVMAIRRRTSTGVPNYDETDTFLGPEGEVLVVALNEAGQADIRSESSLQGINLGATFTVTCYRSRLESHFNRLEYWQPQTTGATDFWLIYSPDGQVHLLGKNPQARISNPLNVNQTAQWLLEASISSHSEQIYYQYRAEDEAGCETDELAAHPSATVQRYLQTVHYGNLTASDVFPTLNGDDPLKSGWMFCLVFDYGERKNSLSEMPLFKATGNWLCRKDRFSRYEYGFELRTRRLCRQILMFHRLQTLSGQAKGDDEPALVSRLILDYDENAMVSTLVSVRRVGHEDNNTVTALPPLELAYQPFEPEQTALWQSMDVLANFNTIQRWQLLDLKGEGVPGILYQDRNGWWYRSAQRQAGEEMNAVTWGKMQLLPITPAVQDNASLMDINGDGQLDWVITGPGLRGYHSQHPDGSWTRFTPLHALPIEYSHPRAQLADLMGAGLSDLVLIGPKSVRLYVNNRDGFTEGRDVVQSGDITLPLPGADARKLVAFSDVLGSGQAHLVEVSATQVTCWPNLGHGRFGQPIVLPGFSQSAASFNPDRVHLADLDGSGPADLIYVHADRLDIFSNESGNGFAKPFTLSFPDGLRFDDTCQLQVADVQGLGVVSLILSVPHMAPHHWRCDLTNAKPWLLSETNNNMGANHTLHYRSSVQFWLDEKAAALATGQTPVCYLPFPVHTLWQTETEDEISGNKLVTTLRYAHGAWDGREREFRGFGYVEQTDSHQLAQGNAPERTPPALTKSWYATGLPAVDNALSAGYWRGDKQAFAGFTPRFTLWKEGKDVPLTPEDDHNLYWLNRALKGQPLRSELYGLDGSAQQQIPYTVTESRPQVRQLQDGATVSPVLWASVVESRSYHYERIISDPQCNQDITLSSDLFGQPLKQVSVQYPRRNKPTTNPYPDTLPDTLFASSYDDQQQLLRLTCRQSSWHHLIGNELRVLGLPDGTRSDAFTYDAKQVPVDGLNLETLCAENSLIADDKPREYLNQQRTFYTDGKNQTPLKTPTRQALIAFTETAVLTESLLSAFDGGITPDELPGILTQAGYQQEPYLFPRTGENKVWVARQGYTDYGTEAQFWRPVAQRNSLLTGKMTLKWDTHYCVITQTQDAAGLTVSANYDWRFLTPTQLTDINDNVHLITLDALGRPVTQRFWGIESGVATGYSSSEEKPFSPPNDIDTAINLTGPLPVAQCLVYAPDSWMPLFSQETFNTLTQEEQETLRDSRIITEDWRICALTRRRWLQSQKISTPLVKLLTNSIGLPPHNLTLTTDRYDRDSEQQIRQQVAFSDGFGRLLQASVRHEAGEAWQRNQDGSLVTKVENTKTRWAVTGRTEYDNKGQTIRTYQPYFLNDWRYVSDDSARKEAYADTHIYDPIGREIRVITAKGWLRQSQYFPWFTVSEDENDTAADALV
Experiment: two-dimensional gel electrophoresis with MALDI-TOF of the spots; total cell protein of E. coli co-producing TcdB1 and TccC1 (pBC1), compared with pB; spots identified by MALDI-TOF

**Q.** For “TccC1 (C-subunit of the Photorhabdus toxin complex) (P. luminescens)”, which binding is on record?
**A.** The binding was “binds”.

Source: paper PMC3789776
